PubChem BioAssay AID1259405 – NCATS – 2018
Shown is a random part of about 50,000 deposited reagents. Of all reagents, about 4,000 (8%) were called active. 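Mouse siRNA library applied to hamster cells; one well for each siRNA.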 The numbers tell different reagents against one gene apart.

- Screen: 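Knock-downs that lift recombinant protein yield in hamster ovary cells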 (primary screen)
- Cell system: Chinese hamster CHO-K1 ovary cells with stable secreted eGFP expression
- Reagents: single siRNA against mouse genes, 0.8 pmol siRNA per well (2 µl of 400 nM stock)
- Timing: 3 days
- Read-out: 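Per-well intracellular GFP measured by laser scanning cytometry, plus viability from ATP luminescence, each relative to plate median of non-targeting control wells, in %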
- Direction: GFP, % of control: higher = more GFP per well, higher productivity; viability (ATP), % of control: higher = more viable cells (more ATP)
- Active means: 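Called active when intracellular GFP, relative to negative control, is at or above 120%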

Sall2 (spalt like transcription factor 2) #1 → GFP, % of control: 28; viability (ATP), % of control: 30.7; Call: inactive
Sall2 (spalt like transcription factor 2) #2 → GFP, % of control: 85.7; viability (ATP), % of control: 73.6; Call: inactive
Sall2 (spalt like transcription factor 2) #3 → GFP, % of control: 134; viability (ATP), % of control: 51.7; Call: active
Rbm34 (RNA binding motif protein 34) #1 → GFP, % of control: 42.5; viability (ATP), % of control: 72.6; Call: inactive
Rbm34 (RNA binding motif protein 34) #2 → GFP, % of control: 95.9; viability (ATP), % of control: 76.2; Call: inactive
Rbm34 (RNA binding motif protein 34) #3 → GFP, % of control: 76.5; viability (ATP), % of control: 72.1; Call: inactive
Angptl6 (angiopoietin-like 6) #1 → GFP, % of control: 90.8; viability (ATP), % of control: 91.1; Call: inactive
Angptl6 (angiopoietin-like 6) #2 → GFP, % of control: 118; viability (ATP), % of control: 75.2; Call: inactive
Pcbp4 (poly(rC) binding protein 4) #1 → GFP, % of control: 66; viability (ATP), % of control: 38.3; Call: inactive
Pcbp4 (poly(rC) binding protein 4) #2 → GFP, % of control: 44.3; viability (ATP), % of control: 28.7; Call: inactive
Pcbp4 (poly(rC) binding protein 4) #3 → GFP, % of control: 50.2; viability (ATP), % of control: 56.4; Call: inactive

Entries listed so far whose target name begins with P or p (3):
Pcbp4 (poly(rC) binding protein 4) #1 → GFP, % of control: 66; viability (ATP), % of control: 38.3; Call: inactive
Pcbp4 (poly(rC) binding protein 4) #2 → GFP, % of control: 44.3; viability (ATP), % of control: 28.7; Call: inactive
Pcbp4 (poly(rC) binding protein 4) #3 → GFP, % of control: 50.2; viability (ATP), % of control: 56.4; Call: inactive

The list goes on.
Dennd5a (DENN domain containing 5A) #1 → GFP, % of control: 92.2; viability (ATP), % of control: 72.2; Call: inactive
Dennd5a (DENN domain containing 5A) #2 → GFP, % of control: 109; viability (ATP), % of control: 73; Call: inactive
Dennd5a (DENN domain containing 5A) #3 → GFP, % of control: 65.3; viability (ATP), % of control: 81.9; Call: inactive
Ilf2 (interleukin enhancer binding factor 2) #1 → GFP, % of control: 80.1; viability (ATP), % of control: 98.3; Call: inactive
Ilf2 (interleukin enhancer binding factor 2) #2 → GFP, % of control: 90.2; viability (ATP), % of control: 89.3; Call: inactive
Apc2 (APC regulator of WNT signaling pathway 2) #1 → GFP, % of control: 75.7; viability (ATP), % of control: 74.6; Call: inactive
Apc2 (APC regulator of WNT signaling pathway 2) #2 → GFP, % of control: 85.3; viability (ATP), % of control: 85.9; Call: inactive
Or8s8 (olfactory receptor family 8 subfamily S member 8) #1 → GFP, % of control: 89.4; viability (ATP), % of control: 44.3; Call: inactive
Or8s8 (olfactory receptor family 8 subfamily S member 8) #2 → GFP, % of control: 99; viability (ATP), % of control: 84.1; Call: inactive
Or8s8 (olfactory receptor family 8 subfamily S member 8) #3 → GFP, % of control: 35.1; viability (ATP), % of control: 31.2; Call: inactive
Lgi2 (leucine-rich repeat LGI family, member 2) #1 → GFP, % of control: 59.2; viability (ATP), % of control: 47.9; Call: inactive
Lgi2 (leucine-rich repeat LGI family, member 2) #2 → GFP, % of control: 89.1; viability (ATP), % of control: 81.8; Call: inactive
Lgi2 (leucine-rich repeat LGI family, member 2) #3 → GFP, % of control: 67.5; viability (ATP), % of control: 77; Call: inactive
Zfp185 (zinc finger protein 185) #1 → GFP, % of control: 126; viability (ATP), % of control: 86; Call: active
Zfp185 (zinc finger protein 185) #2 → GFP, % of control: 96.8; viability (ATP), % of control: 61.6; Call: inactive
Zfp185 (zinc finger protein 185) #3 → GFP, % of control: 110; viability (ATP), % of control: 120; Call: inactive
